Measured values as given in publication PMC3323469 (EJNMMI Research, 2012).
Square brackets hold non-standard residues; d marks the D form. * marks the point of attachment. NOTA = O=C(O)CN1CCN(CC(=O)O)CCN(CC(=O)*)CC1; 2Thi = N[C@@H](Cc1cccs1)C(=O)O; Nle = CCCC[C@H](N)C(=O)O; AEEA = NCCOCCOCC(=O)O; βAla = NCCC(=O)O

Experiment: general procedure: Fmoc solid-phase peptide synthesis; NovaSyn TGR resin and Sieber amide resin; PyBOP; HATU; ClHOBT; DIEA
Conditions: whole synthesis

Q: Which results are given for “{NOTA-AEEA}-[dY]QWAV[βAla]H[2Thi][Nle]-NH2 (SMILES CCCC[C@H](NC(=O)[C@H](Cc1cccs1)NC(=O)[C@H](Cc1c[nH]cn1)NC(=O)CCNC(=O)[C@@H](NC(=O)[C@H](C)NC(=O)[C@H](Cc1c[nH]c2ccccc12)NC(=O)[C@H](CCC(N)=O)NC(=O)[C@@H](Cc1ccc(O)cc1)NC(=O)COCCOCCNC(=O)CN1CCN(CC(=O)O)CCN(CC(=O)O)CC1)C(C)C)C(N)=O)”?
A: final HPLC purity (analytical HPLC): 99%; isolated yield (overall, based on substitution rate of the resin): 38%
